Experimental data from PMC11193767.

By UniProt entry, the sequences of proteins in these tests, tags left out.
UniProt Q8IWT6: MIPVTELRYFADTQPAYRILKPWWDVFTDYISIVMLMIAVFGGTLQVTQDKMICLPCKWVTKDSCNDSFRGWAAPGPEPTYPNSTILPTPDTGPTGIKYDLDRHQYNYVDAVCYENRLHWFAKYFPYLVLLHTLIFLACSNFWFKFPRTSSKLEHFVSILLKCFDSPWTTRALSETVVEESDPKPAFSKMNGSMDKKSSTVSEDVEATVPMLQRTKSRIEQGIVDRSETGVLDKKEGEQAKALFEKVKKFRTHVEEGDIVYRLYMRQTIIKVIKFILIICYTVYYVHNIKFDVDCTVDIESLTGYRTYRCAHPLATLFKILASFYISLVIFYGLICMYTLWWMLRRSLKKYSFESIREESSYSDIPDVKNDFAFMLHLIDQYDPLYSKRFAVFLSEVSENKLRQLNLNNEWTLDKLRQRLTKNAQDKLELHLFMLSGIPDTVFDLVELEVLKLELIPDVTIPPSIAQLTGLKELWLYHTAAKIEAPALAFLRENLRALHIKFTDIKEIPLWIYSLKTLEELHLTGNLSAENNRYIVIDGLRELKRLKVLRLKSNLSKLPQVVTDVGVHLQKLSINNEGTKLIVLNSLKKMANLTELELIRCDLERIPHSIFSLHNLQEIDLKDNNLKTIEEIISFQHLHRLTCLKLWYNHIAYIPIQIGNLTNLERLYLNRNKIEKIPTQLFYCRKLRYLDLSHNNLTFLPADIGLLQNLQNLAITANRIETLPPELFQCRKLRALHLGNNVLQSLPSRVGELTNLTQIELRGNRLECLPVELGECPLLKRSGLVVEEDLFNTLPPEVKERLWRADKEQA

B1: Oxysterol-binding protein-related protein 8 (protein, UniProt Q9BZF1-1 1-889)
chain: MEGGLADGEPDRTSLLGDSKDVLGPSTVVANSDESQLLTPGKMSQRQGKEAYPTPTKDLHQPSLSPASPHSQGFERGKEDISQNKDESSLSMSKSKSESKLYNGSEKDSSTSSKLTKKESLKVQKKNYREEKKRATKELLSTITDPSVIVMADWLKIRGTLKSWTKLWCVLKPGVLLIYKTQKNGQWVGTVLLNACEIIERPSKKDGFCFKLFHPLEQSIWAVKGPKGEAVGSITQPLPSSYLIIRATSESDGRCWMDALELALKCSSLLKRTMIREGKEHDLSVSSDSTHVTFYGLLRANNLHSGDNFQLNDSEIERQHFKDQDMYSDKSDKENDQEHDESDNEVMGKSEESDTDTSERQDDSYIEPEPVEPLKETTYTEQSHEELGEAGEASQTETVSEENKSLIWTLLKQVRPGMDLSKVVLPTFILEPRSFLDKLSDYYYHADFLSEAALEENPYFRLKKVVKWYLSGFYKKPKGLKKPYNPILGETFRCLWIHPRTNSKTFYIAEQVSHHPPISAFYVSNRKDGFCLSGSILAKSKFYGNSLSAILEGEARLTFLNRGEDYVMTMPYAHCKGILYGTMTLELGGTVNITCQKTGYSAILEFKLKPFLGSSDCVNQISGKLKLGKEVLATLEGHWDSEVFITDKKTDNSEVFWNPTPDIKQWRLIRHTVKFEEQGDFESEKLWQRVTRAINAKDQTEATQEKYVLEEAQRQAARDRKTKNEEWSCKLFELDPLTGEWHYKFADTRPWDPLNDMIQFEKDGVIQTKVKHRTPMVSVPKMKHKPTRQQKKVAKGYSSPEPDIQDSSGSEAQSVKPSTRRKKGIELGDIQSSIESIKQTQEEIKRNIMALRNHLVSSTPATDYFLQQKDYFIIFLLILLQVIINFMFK
B2: Phosphatase and actin regulator 4 (protein, UniProt Q8IZ21-2 1-712)
chain: MGQADVSRPVNPDAVEEADQPTTEPGMVLDSVEAGDTTPPTKRKSKFSGFGKIFKPWKWRKKKSSDKFKETSEVLERKISMRKPREELVKRGVLLEDPEQGGEDPGKPSDAMLKNGHTTPIGNARSSSPVQVEEEPVRLASLRKAIPEEDLKKRLGSTGSQPNSEAESVPENVPKPPLLPPKRPLSSSHEASEGQAKDATSSGGTARFIISTSITTAPAATTAATSLAKTVNLSVTPSPAPRTLPAAPASTNTTATPSLTHMVPAKQPPIPPPKPAHRNSNPVIAELSQAINSGTLLSKPSPPLPPKRGIPSTSVPTLESAAAITTKTPSDEREKSTCSMGSELLPMISPRSPSPPLPTHIPPEPPRTPPFPAKTFQVVPEIEFPPSLDLHQEIPQQEDQKKEVPKRILDQNFGEPHIPSRLPPLPLHIRIQQALTSPLPMTPILEGSHRAHSLLFENSDSFSEDSSTLGRTRSLPITIEMLKVPDDEEEEEQTCPSTFSEEMTPTSVIPKLPQCLREEEEKESDSDSEGPIQYRDEEDEDESYQSALANKVKRKDTLAMKLNHRPSEPELNLNSWPCKSKEEWNEIRHQIGNTLIRRLSQRPTPEELEQRNILQPKNEADRQAEKREIKRRLTRKLSQRPTVAELLARKILRFNEYVEVTDAQDYDRRADKPWTKLTPADKAAIRKELNEFKSSEMEVHEESKHFTRYHRP
B3: Pleckstrin homology domain-containing family a member 5 (protein, UniProt Q9HAU0-6 1-1282)
chain: MAADLNLEWISLPRSWTYGITRGGRVFFINEEAKSTTWLHPVTGEAVVTGHRRQSTDLPTGWEEAYTFEGARYYINHNERKVTCKHPVTGQPSQDNCIFVVNEQTVATMTSEEKKERPISMINEASNYNVTSDYAVHPMSPVGRTSRASKKVHNFGKRSNSIKRNPNAPVVRRGWLYKQDSTGMKLWKKRWFVLSDLCLFYYRDEKEEGILGSILLPSFQIALLTSEDHINRKYAFKAAHPNMRTYYFCTDTGKEMELWMKAMLDAALVQTEPVKRITFNFRVDKITSENAPTKETNNIPNHRVLIKPEIQNNQKNKEMSKIEEKKALEAEKYGFQKDGQDRPLTKINSVKLNSLPSEYESGSACPAQTVHYRPINLSSSENKIVNVSLADLRGGNRPNTGPLYTEADRVIQRTNSMQQLEQWIKIQKGRGHEEETRGVISYQTLPRNMPSHRAQIMARYPEGYRTLPRNSKTRPESICSVTPSTHDKTLGPGAEEKRRSMRDDTMWQLYEWQQRQFYNKQSTLPRHSTLSSPKTMVNISDQTMHSIPTSPSHGSIAAYQGYSPQRTYRSEVSSPIQRGDVTIDRRHRAHHPKHVYVPDRRSVPAGLTLQSVSPQSLQGKTPEELTLLLIKLRRQQAELSSIREHTLAQLMQLKLEAHSPKNEILSHHLQRNTIYLDHQMKENEPIITMVHTMIENSALRPQLYQQFLRQKSKISLYCLSQDEGRGTLYKYRPEEVDIDAKLSRLCEQDKVVHALEEKLQQLHKEKYTLEQALLSASQEIEMHADNPAAIQTVVLQRDDLQNGLLSTCRELSRATAELERAWREYDKLEYDVTVTRNQMQEQLDHLGEVQTESAGIQRAQIQKELWRIQDVMEGLSKHKQQRGTTEIGMIGSKPFSTVKYKNEEEEVVPPRPPLPRSYDFTEQPPIIPPLPSDSSSLLCYSRGPVHLPEEKKMYQVQGYPRNGSHCGPDYRLYKSEPELTTVAEVDESNGEEKSEPVSEIETSVVKGSHFPVGVVPPRAKSPTPESSTIASYVTLRKTKKMMDLRTERPRSAVEQLCLAESTRPRMTVEEQMERIRRHQQACLREKKKGLNVIGASDQSPLQSPSNLRDNPFRTTQTRRRDDKELDTAIRENDVKPDHETPATEIVQLKETEPQNVDFSKELKKTENISYEMLFEPEPNGVNSVEMMDKERNKDKMPEDVTFSPQDETQTANHKPEEHPEENTKNSVDEQEETVISYESTPEVSRGNQTMAVKSLSPSPESSASPVPSTQPQLTEGSHFMCV
B4: Prolactin regulatory element-binding protein (protein, UniProt Q9HCU5 1-417)
chain: MGRRRAPELYRAPFPLYALQVDPSTGLLIAAGGGGAAKTGIKNGVHFLQLELINGRLSASLLHSHDTETRATMNLALAGDILAAGQDAHCQLLRFQAHQQQGNKAEKAGSKEQGPRQRKGAAPAEKKCGAETQHEGLELRVENLQAVQTDFSSDPLQKVVCFNHDNTLLATGGTDGYVRVWKVPSLEKVLEFKAHEGEIEDLALGPDGKLVTVGRDLKASVWQKDQLVTQLHWQENGPTFSSTPYRYQACRFGQVPDQPAGLRLFTVQIPHKRLRQPPPCYLTAWDGSNFLPLRTKSCGHEVVSCLDVSESGTFLGLGTVTGSVAIYIAFSLQCLYYVREAHGIVVTDVAFLPEKGRGPELLGSHETALFSVAVDSRCQLHLLPSRRSVPVWLLLLLCVGLIIVTILLLQSAFPGFL
B5: PH and SEC7 domain-containing protein 3 (protein, UniProt Q9NYI0-2 1-1047)
chain: MEGRSAAAETFVWVNNASAHSQSVAKAKYEFLFGRSEGKAPDTSDHGGSTLLPPNVTNEFPEYGTMEEGGEGLRASLEFDGEALPCHPQEQQGVQPLTGCHSGLDSVTEGPKDVREAPSQSHLKEQSLQPIDSLISALKATEARIISGTLQATKVLDQDAVSSFSVQQVEKELDTASRKTQRVNKTLPAGQKNLPEIPLSAEVTTEESFYLSIQKDLTALLTGDTQAEISQIMNNGRKGAVCVQEPSCPLASLGSSAVTCHSAGSVGFLKEQRSALGREHPGGCDRSSSMGRPGRVKHVEFQGVEILWTGGDKRETQHPIDFETSLQRTASPDSKESSKVPRHLISSAGLCNSSSLTENVWDESWKAPSERPGTSSGTFSPVRLDESGEDEVFLQENKQHLEKTPKPERDRERISEQEEHVKGEDEDILGPGYTEDSTDVYSSQFETILDNTSLYYSAESLETLYSEPDSYFSFEMPLTPMIQQRIKEGGQFLERTSGGGHQDILSVSADGGIVMGYSSGVTNGLNDASDSIYTKGTPEIAFWGSNAGVKTTRLEAHSEMGSTEILEKETPENLSNGTSSNVEAAKRLAKRLYQLDRFKRSDVAKHLGKNNEFSKLVAEEYLKFFDFTGMTLDQSLRYFFKAFSLVGETQERERVLIHFSNRYFYCNPDTIASQDGVHCLTCAIMLLNTDLHGHNIGKKMTCQEFIANLQGVNEGVDFSKDLLKALYNSIKNEKLEWAVDDEEKKKSPSESTEEKANGTHPKTISRIGSTTNPFLDIPHDPNAAVYKSGFLARKIHADMDGKKTPRGKRGWKTFYAVLKGTVLYLQKDEYKPEKALSEEDLKNAVSVHHALASKATDYEKKPNVFKLKTADWRVLLFQTQSPEEMQGWINKINCVAAVFSAPPFPAAIGSQKKFSRPLLPATTTKLSQEEQLKSHESKLKQITTELAEHRSYPPDKKVKAKDVDEYKLKDHYLEFEKTRYEMYVSILKEGGKELLSNDESEAAGLKKSHSSPSLNPDTSPITAKVKRNVSERKDHRPETPSIKQKVT
B6: Tyrosine-protein phosphatase non-receptor type 1 (protein, UniProt P18031 1-435)
chain: MEMEKEFEQIDKSGSWAAIYQDIRHEASDFPCRVAKLPKNKNRNRYRDVSPFDHSRIKLHQEDNDYINASLIKMEEAQRSYILTQGPLPNTCGHFWEMVWEQKSRGVVMLNRVMEKGSLKCAQYWPQKEEKEMIFEDTNLKLTLISEDIKSYYTVRQLELENLTTQETREILHFHYTTWPDFGVPESPASFLNFLFKVRESGSLSPEHGPVVVHCSAGIGRSGTFCLADTCLLLMDKRKDPSSVDIKKVLLEMRKFRMGLIQTADQLRFSYLAVIEGAKFIMGDSSVQDQWKELSHEDLEPPPEHIPPPPRPPKRILEPHNGKCREFFPNHQWVKEETQEDKDCPIKEEKGSPLNAAPYGIESMSQDTEVRSRVVGGSLRGAQAASPAKGEPSLPEKDEDHALSYWKPFLVNMCVATVLTAGAYLCYRFLFNSNT
B7: Ras-related protein Rab-23 (protein, UniProt Q9ULC3 1-237)
chain: MLEEDMEVAIKMVVVGNGAVGKSSMIQRYCKGIFTKDYKKTIGVDFLERQIQVNDEDVRLMLWDTAGQEEFDAITKAYYRGAQACVLVFSTTDRESFEAVSSWREKVVAEVGDIPTVLVQNKIDLLDDSCIKNEEAEALAKRLKLRFYRTSVKEDLNVNEVFKYLAEKYLQKLKQQIAEDPELTHSSSNKIGVFNTSGGSHSGQNSGTLNGGDVINLRPNKQRTKKNRNPFSSCSIP
B8: Ankycorbin (protein, UniProt Q9P0K7-2 1-983)
chain: MQPTYLPWLSAKEKKTNEWNKNDDRLLQAVENGDAEKVASLLGKKGASATKHDSEGKTAFHLAAAKGHVECLRVMITHGVDVTAQDTTGHSALHLAAKNSHHECIRKLLQSKCPAESVDSSGKTALHYAAAQGCLQAVQILCEHKSPINLKDLDGNIPLLLAVQNGHSEICHFLLDHGADVNSRNKSGRTALMLACEIGSSNAVEALIKKGADLNLVDSLGYNALHYSKLSENAGIQSLLLSKISQDADLKTPTKPKQHDQVSKISSERSGTPKKRKAPPPPISPTQLSDVSSPRSITSTPLSGKESVFFAEPPFKAEISSIRENKDRLSDSTTGADSLLDISSEADQQDLLSLLQAKVASLTLHNKELQDKLQAKSPKEAEADLSFDSYHSTQTDLGPSLGKPGETSPPDSKSSPSVLIHSLGKSTTDNDVRIQQLQEILQDLQKRLESSEAERKQLQVELQSRRAELVCLNNTEISENSSDLSQKLKETQSKYEEAMKEVLSVQKQMKLGLVSPESMDNYSHFHELRVTEEEINVLKQDLQNALEESERNKEKVRELEEKLVEREKGTVIKPPVEEYEEMKSSYCSVIENMNKEKAFLFEKYQEAQEEIMKLKDTLKSQMTQEASDEAEDMKEAMNRMIDELNKQVSELSQLYKEAQAELEDYRKRKSLEDVTAEYIHKAEHEKLMQLTNVSRAKAEDALSEMKSQYSKVLNELTQLKQLVDAQKENSVSITEHLQVITTLRTAAKEMEEKISNLKEHLASKEVEVAKLEKQLLEEKAAMTDAMVPRSSYEKLQSSLESEVSVLASKLKESVKEKEKVHSEVVQIRSEVSQVKREKENIQTLLKSKEQEVNELLQKFQQAQEELAEMKRYAESSSKLEEDKDKKINEMSKEVTKLKEALNSLSQLSYSTSSSKRQSQQLEALQQQVKQLQNQLAECKKQHQEVISVYRMHLLYAVQGQMDEDVQKVLKQILTMCKNQSQKK

The binders below were run against LRRC8A-BirA*-HA fusion protein (human) (UniProt Q8IWT6) (assay: proximity labelling; BioID: HEK293 cells stably expressing LRRC8A-BirA*-HA (two clones), 50 uM biotin 24 h, RIPA lysis, streptavidin bead pull-down of biotinylated proteins, TMT labelling and LC-MS/MS; hits: FDR <= 0.05 and fold change >= 2 against the no-biotin control).

Row | Binder | binding
1 | B1 | binds
2 | B2 | binds
3 | B3 | binds
4 | B4 | binds
5 | B5 | binds
6 | B6 | binds
7 | B7 | binds
8 | B8 | binds

Results are given in words; binding and its absence hold for the method and conditions named. Binding seen in cells or lysates may run through a third protein. Here binding means that the protein was enriched with, or labelled near, the bait; the list need not be complete.
